Data: the supplement of paper PMC4604168 (melanoma cell lines)
This is one part of the list. Single values are uncertain, as repeats are few or missing.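 Cells were imaged in 1,536-well plates, and nuclei stained with an antibody against cleaved PARP were counted against all DNA-stained nuclei to give the apoptosis fraction. Screening doses were chosen to leave most cells alive, and resting and induced cleaved-PARP levels differ strongly between cell lines.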

Each molecule was assayed on G361 (assay: cleaved PARP positive nuclei fraction relative to DMSO control; melanoma cells; higher = more apoptosis). Details: library dose: low library concentration; 72 h.

Row | SMILES | cleaved PARP positive nuclei fraction [%]
1 | N#CC[C@H](C1CCCC1)n1cc(-c2ncnc3[nH]ccc23)cn1 [ruxolitinib] + CCN(CC)CCNC(=O)c1c(C)[nH]c(/C=C2\C(=O)Nc3ccc(F)cc32)c1C [sunitinib] (first compound 1 µM, partner dose 0.4 µM) | 131
2 | COc1cc([C@@H]2c3cc4c(cc3[C@@H](O[C@@H]3O[C@@H]5CO[C@@H](C)O[C@H]5[C@H](O)[C@H]3O)[C@H]3COC(=O)[C@H]23)OCO4)cc(OC)c1O [etoposide] + O=C(/C=C/c1cccnc1)NCCCCC1CCN(C(=O)c2ccccc2)CC1 [FK866] (first compound 0.02 µM, partner dose 0.01 µM) | 1700
3 | O=c1[nH]nc(Sc2ncc([N+](=O)[O-])s2)n1-c1ccc2c(c1)OCCO2 + CC(=O)O[C@@]12CO[C@@H]1C[C@H](O)[C@@]1(C)C(=O)[C@H](O)C3=C(C)[C@@H](OC(=O)[C@H](O)[C@@H](NC(=O)OC(C)(C)C)c4ccccc4)C[C@@](O)([C@@H](OC(=O)c4ccccc4)[C@H]21)C3(C)C [Docetaxel] (first compound 0.2 µM, partner dose 0.0001 µM) | 729
4 | N#CC[C@H](C1CCCC1)n1cc(-c2ncnc3[nH]ccc23)cn1 [ruxolitinib] + NC(=O)c1ccc(N(C(N)=O)c2c(F)cccc2F)nc1-c1ccc(F)cc1F [VX702] (first compound 1 µM, partner dose 0.4 µM) | 108
5 | N#CC[C@H](C1CCCC1)n1cc(-c2ncnc3[nH]ccc23)cn1 [ruxolitinib] + Cn1sc(=O)n(Cc2ccccc2)c1=O [TDZD-8] (first compound 1 µM, partner dose 0.4 µM) | 174
6 | CC[C@]1(O)C[C@H]2CN(CCc3c([nH]c4ccccc34)[C@@](C(=O)OC)(c3cc4c(cc3OC)N(C=O)[C@H]3[C@@](O)(C(=O)OC)[C@H](OC(C)=O)[C@]5(CC)C=CCN6CC[C@]43[C@@H]65)C2)C1 [vincristine] + C[C@@H](Oc1cc(-c2cnn(C3CCNCC3)c2)cnc1N)c1c(Cl)ccc(F)c1Cl [Crizotinib] (first compound 0.0001 µM, partner dose 0.2 µM) | 180
7 | O=c1[nH]nc(Sc2ncc([N+](=O)[O-])s2)n1-c1ccc2c(c1)OCCO2 + CN(c1ncccc1CNc1nc(Nc2ccc3c(c2)CC(=O)N3)ncc1C(F)(F)F)S(C)(=O)=O [PF562271] (first compound 0.2 µM, partner dose 0.08 µM) | 64.9
8 | O=C(Nc1cc(C(F)(F)F)cc(C(F)(F)F)c1)c1cc(Cl)ccc1O + Nc1ccn([C@@H]2O[C@H](CO)[C@@H](O)C2(F)F)c(=O)n1 [gemcitabine] (first compound 0.016 µM, partner dose 0.0004 µM) | 113
9 | COc1cc([C@@H]2c3cc4c(cc3[C@@H](O[C@@H]3O[C@@H]5CO[C@@H](C)O[C@H]5[C@H](O)[C@H]3O)[C@H]3COC(=O)[C@H]23)OCO4)cc(OC)c1O [etoposide] + CCCS(=O)(=O)Nc1ccc(F)c(C(=O)c2c[nH]c3ncc(Cl)cc23)c1F [PLX4720] (first compound 0.02 µM, partner dose 0.08 µM) | 165
10 | CC[C@]1(O)C[C@H]2CN(CCc3c([nH]c4ccccc34)[C@@](C(=O)OC)(c3cc4c(cc3OC)N(C=O)[C@H]3[C@@](O)(C(=O)OC)[C@H](OC(C)=O)[C@]5(CC)C=CCN6CC[C@]43[C@@H]65)C2)C1 [vincristine] + Cn1c(=O)n(-c2ccc(C(C)(C)C#N)cc2)c2c3cc(-c4cnc5ccccc5c4)ccc3ncc21 [NVP-BEZ235] (first compound 0.0001 µM, partner dose 0.004 µM) | 113
11 | COc1cc([C@@H]2c3cc4c(cc3[C@@H](O[C@@H]3O[C@@H]5CO[C@@H](C)O[C@H]5[C@H](O)[C@H]3O)[C@H]3COC(=O)[C@H]23)OCO4)cc(OC)c1O [etoposide] + CN(c1ncccc1CNc1nc(Nc2ccc3c(c2)CC(=O)N3)ncc1C(F)(F)F)S(C)(=O)=O [PF562271] (first compound 0.02 µM, partner dose 0.08 µM) | 124
12 | Cc1cc(Nc2cc(N3CCN(C)CC3)nc(Sc3ccc(NC(=O)C4CC4)cc3)n2)n[nH]1 [Tozasertib] + Cc1cc(Nc2cc(N3CCN(C)CC3)nc(/C=C/c3ccccc3)n2)n[nH]1 [ENMD2076] (first compound 0.006 µM, partner dose 0.04 µM) | 78.9
13 | O=C(Nc1cc(C(F)(F)F)cc(C(F)(F)F)c1)c1cc(Cl)ccc1O + C[C@]1(c2nc3c(C(N)=O)cccc3[nH]2)CCCN1 [Veliparib] (first compound 0.016 µM, partner dose 1.4 µM) | 41.6
14 | O=C(Nc1cc(C(F)(F)F)cc(C(F)(F)F)c1)c1cc(Cl)ccc1O + Nc1ncn([C@H]2C[C@H](O)[C@@H](CO)O2)c(=O)n1 [decitabine] (first compound 0.016 µM, partner dose 0.1 µM) | 134
15 | CC[C@]1(O)C[C@H]2CN(CCc3c([nH]c4ccccc34)[C@@](C(=O)OC)(c3cc4c(cc3OC)N(C=O)[C@H]3[C@@](O)(C(=O)OC)[C@H](OC(C)=O)[C@]5(CC)C=CCN6CC[C@]43[C@@H]65)C2)C1 [vincristine] + Cn1c(Nc2ccc(C(F)(F)F)cc2)nc2cc(Oc3ccnc(-c4ncc(C(F)(F)F)[nH]4)c3)ccc21 [CHIR265] (first compound 0.0001 µM, partner dose 0.08 µM) | 143
16 | Cc1cc(Nc2cc(N3CCN(C)CC3)nc(Sc3ccc(NC(=O)C4CC4)cc3)n2)n[nH]1 [Tozasertib] + N#CC[C@H](C1CCCC1)n1cc(-c2ncnc3[nH]ccc23)cn1 [ruxolitinib] (first compound 0.006 µM, partner dose 1 µM) | 103
17 | CC[C@]1(O)C[C@H]2CN(CCc3c([nH]c4ccccc34)[C@@](C(=O)OC)(c3cc4c(cc3OC)N(C=O)[C@H]3[C@@](O)(C(=O)OC)[C@H](OC(C)=O)[C@]5(CC)C=CCN6CC[C@]43[C@@H]65)C2)C1 [vincristine] + C=C(c1ccc(C(=O)O)cc1)c1cc2c(cc1C)C(C)(C)CCC2(C)C [Bexarotene] (first compound 0.0001 µM, partner dose 2 µM) | 37.2
18 | O=C(/C=C/c1cccnc1)NCCCCC1CCN(C(=O)c2ccccc2)CC1 + C#Cc1cccc(Nc2ncnc3cc(OCCOC)c(OCCOC)cc23)c1 [erlotinib] (first compound 0.01 µM, partner dose 0.8 µM) | 4260
19 | Cc1cn(-c2cc(NC(=O)c3ccc(C)c(Nc4nccc(-c5cccnc5)n4)c3)cc(C(F)(F)F)c2)cn1 [nilotinib] + CO[C@H]1C[C@@H]2CC[C@@H](C)[C@@](O)(O2)C(=O)C(=O)N2CCCC[C@H]2C(=O)O[C@H]([C@H](C)C[C@@H]2CC[C@@H](OCCO)[C@H](OC)C2)CC(=O)[C@H](C)/C=C(\C)[C@@H](O)[C@@H](OC)C(=O)[C@H](C)C[C@H](C)/C=C/C=C/C=C/1C [everolimus] (first compound 0.2 µM, partner dose 0.02 µM) | 105
20 | O=C(Nc1cc(C(F)(F)F)cc(C(F)(F)F)c1)c1cc(Cl)ccc1O + Cn1c(Nc2ccc(C(F)(F)F)cc2)nc2cc(Oc3ccnc(-c4ncc(C(F)(F)F)[nH]4)c3)ccc21 [CHIR265] (first compound 0.016 µM, partner dose 0.08 µM) | 118
21 | O=c1[nH]nc(Sc2ncc([N+](=O)[O-])s2)n1-c1ccc2c(c1)OCCO2 + OCc1c[nH]c2ccccc12 [Indole-3-carbinol] (first compound 0.2 µM, partner dose 0.8 µM) | 56.5
22 | O=C(/C=C/c1cccnc1)NCCCCC1CCN(C(=O)c2ccccc2)CC1 + CO[C@H]1C[C@@H]2CC[C@@H](C)[C@@](O)(O2)C(=O)C(=O)N2CCCC[C@H]2C(=O)O[C@H]([C@H](C)C[C@@H]2CC[C@@H](OCCO)[C@H](OC)C2)CC(=O)[C@H](C)/C=C(\C)[C@@H](O)[C@@H](OC)C(=O)[C@H](C)C[C@H](C)/C=C/C=C/C=C/1C [everolimus] (first compound 0.01 µM, partner dose 0.02 µM) | 4040
23 | O=c1[nH]nc(Sc2ncc([N+](=O)[O-])s2)n1-c1ccc2c(c1)OCCO2 + CS(=O)(=O)CCNCc1ccc(-c2ccc3ncnc(Nc4ccc(OCc5cccc(F)c5)c(Cl)c4)c3c2)o1 [lapatinib] (first compound 0.2 µM, partner dose 0.8 µM) | 124
24 | COc1cc([C@@H]2c3cc4c(cc3[C@@H](O[C@@H]3O[C@@H]5CO[C@@H](C)O[C@H]5[C@H](O)[C@H]3O)[C@H]3COC(=O)[C@H]23)OCO4)cc(OC)c1O [etoposide] + CO[C@H]1C[C@@H]2CC[C@@H](C)[C@@](O)(O2)C(=O)C(=O)N2CCCC[C@H]2C(=O)O[C@H]([C@H](C)C[C@@H]2CC[C@@H](OCCO)[C@H](OC)C2)CC(=O)[C@H](C)/C=C(\C)[C@@H](O)[C@@H](OC)C(=O)[C@H](C)C[C@H](C)/C=C/C=C/C=C/1C [everolimus] (first compound 0.02 µM, partner dose 0.02 µM) | 57.7
25 | Cc1cn(-c2cc(NC(=O)c3ccc(C)c(Nc4nccc(-c5cccnc5)n4)c3)cc(C(F)(F)F)c2)cn1 [nilotinib] + Nc1cccc2c1CN(C1CCC(=O)NC1=O)C2=O [lenalidomide] (first compound 0.2 µM, partner dose 1 µM) | 95.8
26 | Cc1ccc(Nc2nccc(N(C)c3ccc4c(C)n(C)nc4c3)n2)cc1S(N)(=O)=O [Pazopanib] + CNC(=O)c1cc(Oc2ccc(NC(=O)Nc3ccc(Cl)c(C(F)(F)F)c3)cc2)ccn1 [sorafenib] (first compound 0.4 µM, partner dose 0.4 µM) | 35.2
27 | O=c1[nH]nc(Sc2ncc([N+](=O)[O-])s2)n1-c1ccc2c(c1)OCCO2 + CS(=O)(=O)c1ccc(C(=O)Nc2ccc(Cl)c(-c3ccccn3)c2)c(Cl)c1 [vismodegib] (first compound 0.2 µM, partner dose 1 µM) | 43.8

Some of the entries above in a different format:

| Row | SMILES | cleaved PARP positive nuclei fraction [%] |
| --- | --- | --- |
| 4 | N#CC[C@H](C1CCCC1)n1cc(-c2ncnc3[nH]ccc23)cn1 [ruxolitinib] + NC(=O)c1ccc(N(C(N)=O)c2c(F)cccc2F)nc1-c1ccc(F)cc1F [VX702] (first compound 1 µM, partner dose 0.4 µM) | 108 |
| 5 | N#CC[C@H](C1CCCC1)n1cc(-c2ncnc3[nH]ccc23)cn1 [ruxolitinib] + Cn1sc(=O)n(Cc2ccccc2)c1=O [TDZD-8] (first compound 1 µM, partner dose 0.4 µM) | 174 |
